The list is a part of this screen's results and no random one: it gathers tests that were run many times, whatever their T/C, doses with no T/C, and many T/C values between a quarter and a half above the control. Further doses and runs are listed elsewhere. T/C is the treated group as % of the vehicle group. Schedules are NCI's codes, read here as Q, the interval in days (D) or hours (H), X, the number of doses. Some values lie below zero, which means that the treated tumours became smaller. Some T/C values are followed by the survivors on the day toxicity was checked, most often the fifth; where none is given, no animal had died by that day. Some doses were run more than once; the results are listed from low to high. Additions like (4×) say how often a value occurs here. Some structures stand for samples that the source files as different forms (salt, stereo form or complex); doses refer to the form tested. Some entries give survivors of the animals treated and no T/C: the source holds a T/C of zero for them, seemingly a mark for toxic or unscored doses. Survivors were counted at the toxicity check, usually on the fifth day, unless a day is given; later deaths do not show.
System: MX-1 breast xenograft, nude mice, tumor weight T/C
Assay: NCI In Vivo Anticancer Drug Screen. Data for tumor model Human Mammary Carcinoma MX-1 Xenograft (intrarenal inoculation) in NU/NU Swiss (nude) mice
Settings: T/C endpoint: mean tumor weight change, higher T/C = larger tumour; for T/C: evaluated on day 11
Method in brief: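 Read-out: treated (T) over vehicle control (C) ratio of survival or tumor size. Dosing in animals carrying the transplanted tumor.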

[1] = dose: 150.0 mg/kg/injection, schedule: Q04DX003 (sc), vehicle: saline with Tween-80
[2] = dose: 200.0 mg/kg/injection, schedule: Q04DX003 (sc), vehicle: saline
[3] = dose: 1200.0 mg/kg/injection, schedule: Q04DX003 (sc), vehicle: saline with Tween-80
[4] = dose: 1200.0 mg/kg/injection, schedule: Q04DX003 (sc), vehicle: Klucel (hydroxypropylcellulose) (HPC)
[5] = dose: 100.0 mg/kg/injection, schedule: Q01DX010 (sc), vehicle: saline
[6] = dose: 200.0 mg/kg/injection, schedule: Q01DX010 (sc), vehicle: saline

**Q.** How did the T/C (dose: 18.75 mg/kg/injection, schedule: Q04DX003 (sc), vehicle: saline with Tween-80) turn out when `O=c1n(CC2CO2)c(=O)n(CC2CO2)c(=O)n1CC1CO1` (centres undefined) was run?
**A.** 26, 47, 78, 82 % of control

**Q.** What about the T/C (dose: 37.5 mg/kg/injection, schedule: Q04DX003 (sc), vehicle: saline with Tween-80) of the same compound?
**A.** 16, 39, 69, 122 % of control

**Q.** And the T/C (dose: 75.0 mg/kg/injection, schedule: Q04DX003 (sc), vehicle: saline with Tween-80)?
**A.** -15, 16, 17 [5 of 6 alive on day 11], 80 % of control

**Q.** What about the survivor count (dose: 100.0 mg/kg/injection, schedule: Q04DX003 (sc), vehicle: saline) of the same compound?
**A.** 3 of 6 on day 11

**Q.** And the T/C [1]?
**A.** 6 [5 of 6 alive on day 11] and 65 % of control

**Q.** What about the survivor count [1] of the same compound?
**A.** 0 of 4 on day 11 and 0 of 6 on day 11

**Q.** And the survivor count [2]?
**A.** 0 of 6 on day 11

**Q.** And the survivor count (dose: 300.0 mg/kg/injection, schedule: Q04DX003 (sc), vehicle: saline with Tween-80)?
**A.** 0 of 6 on day 11

**Q.** What about the survivor count (dose: 600.0 mg/kg/injection, schedule: Q04DX003 (sc), vehicle: saline with Tween-80) of the same compound?
**A.** 0 of 6 on day 11

**Q.** What about the survivor count [3] of the same compound?
**A.** 0 of 6 on day 11

**Q.** Which results are given for `C[C@H](CCC[C@H](C)OS(=O)(=O)c1ccccc1)OS(=O)(=O)c1ccccc1`?
**A.** survivor count [3]: 0 of 6 on day 11; survivor count (dose: 2400.0 mg/kg/injection, schedule: Q04DX003 (sc), vehicle: saline with Tween-80): 0 of 6 on day 11

**Q.** Which T/C [3] does the source give for `BrC1c2cccc3cccc(c23)C1Br` (centres undefined) here?
**A.** 136 % of control

**Q.** With `Cc1ccc(S(=O)(=O)N/N=C/C(Br)=C(/Br)C(=O)O)cc1` as the compound, how does the survivor count [4] read?
**A.** 0 of 6 on day 11

**Q.** Which T/C (dose: 4.0 mg/kg/injection, schedule: Q01DX010 (sc), vehicle: saline) does the source give for `Cc1c(N)nc(C(CC(N)=O)NCC(N)C(N)=O)nc1C(=O)NC(C(=O)NC(C)C(O)C(C)C(=O)NC(C(=O)NCCc1nc(-c2nc(C(=O)NCCCNC(C)c3ccccc3)cs2)cs1)C(C)O)C(OC1OC(CO)C(O)C(O)C1OC1OC(CO)C(O)C(OC(N)=O)C1O)c1cnc[nH]1` (centres undefined) here?
**A.** 141 % of control

**Q.** What does the source list for `COc1cc(NCc2ccc3nc(N)nc(N)c3c2C)cc(OC)c1OC`?
**A.** T/C (dose: 2.5 mg/kg/injection, schedule: Q01DX010 (sc), vehicle: sodium bicarbonate): 128 and 131 % of control; survivor count (dose: 10.0 mg/kg/injection, schedule: Q01DX010 (sc), vehicle: sodium bicarbonate): 1 of 3 on day 11; survivor count (dose: 20.0 mg/kg/injection, schedule: Q01DX010 (sc), vehicle: sodium bicarbonate): 0 of 3 on day 11; survivor count (dose: 600.0 mg/kg/injection, schedule: Q04DX003 (sc), vehicle: water): 0 of 6 on day 15

**Q.** How did the T/C (dose: 50.0 micrograms/kg/injection, schedule: Q01DX010 (sc), vehicle: DMSO) turn out when `COc1c(O)c2c(c3cc(C(=O)N4CCc5c4c(O)c(OC)c4[nH]c(C(=O)N6CC7CC78C6=CC(=O)c6[nH]cc(C)c68)cc54)[nH]c13)CCN2C(N)=O` (centres undefined) was run?
**A.** 131 % of control

**Q.** What about the T/C (dose: 200.0 micrograms/kg/injection, schedule: Q01DX010 (sc), vehicle: DMSO) of the same compound?
**A.** 136 % of control

**Q.** How did the survivor count (dose: 300.0 mg/kg/injection, schedule: Q04DX003 (ip), vehicle: suspension in saline) turn out when `Nc1nc2n[nH]nc2c(=O)[nH]1` was run?
**A.** 2 of 5 on day 11

**Q.** And the survivor count (dose: 600.0 mg/kg/injection, schedule: Q04DX003 (ip), vehicle: suspension in saline)?
**A.** 0 of 5 on day 11 and 0 of 6 on day 11

**Q.** `CCN1C=C/C(=C\C=C/c2cc[n+](CC)c3ccccc23)c2ccccc21` was tested. Which survivor count (dose: 2.0 mg/kg/injection, schedule: Q01DX010 (sc), vehicle: saline) did it give?
**A.** 1 of 3 on day 11

**Q.** Which survivor count [4] does the source give for `C=Cc1cnc([N+](=O)[O-])n1C` here?
**A.** 0 of 6 on day 11

**Q.** How did the survivor count (dose: 8.0 mg/kg/injection, schedule: Q04DX003 (sc), vehicle: suspension in saline) turn out when `C/C=C1\C[C@@H]2C(OC)Nc3cc(O)c(OC)cc3C(=O)N2C1` (some centres undefined) was run?
**A.** 3 of 6 on day 11

**Q.** And the survivor count (dose: 16.0 mg/kg/injection, schedule: Q04DX003 (sc), vehicle: saline)?
**A.** 0 of 6 on day 11

**Q.** And the survivor count (dose: 16.0 mg/kg/injection, schedule: Q04DX003 (sc), vehicle: suspension in saline)?
**A.** 0 of 6 on day 11 and 2 of 6 on day 11

**Q.** Which T/C (dose: 12.5 mg/kg/injection, schedule: Q01DX010 (sc), vehicle: saline) does the source give for `CNC(=O)ON(C(C)=O)C(=O)NC` here?
**A.** 142 % of control

**Q.** What about the T/C (dose: 25.0 mg/kg/injection, schedule: Q01DX010 (sc), vehicle: saline) of the same compound?
**A.** 9, 72, 81, 89, 106 % of control

**Q.** What about the T/C (dose: 50.0 mg/kg/injection, schedule: Q01DX010 (sc), vehicle: saline) of the same compound?
**A.** -38, 2, 26, 31, 90 % of control [2 of 2 alive on day 11]

**Q.** What about the T/C (dose: 50.0 mg/kg/injection, schedule: Q04DX003 (sc), vehicle: saline) of the same compound?
**A.** 139 % of control

**Q.** What about the T/C [5] of the same compound?
**A.** -39, 1 (2×), 4 % of control

**Q.** And the survivor count [5]?
**A.** 1 of 3 on day 11

**Q.** What about the survivor count (dose: 150.0 mg/kg/injection, schedule: Q01DX010 (sc), vehicle: water) of the same compound?
**A.** 0 of 3 on day 11

**Q.** What about the T/C [6] of the same compound?
**A.** 2 % of control [5 of 6 alive on day 11]

**Q.** And the survivor count [6]?
**A.** 0 of 6 on day 11, 0 of 8 on day 11, 1 of 3 on day 11

**Q.** And the survivor count (dose: 200.0 mg/kg/injection, schedule: Q01DX010 (sc), vehicle: water)?
**A.** 0 of 3 on day 11

**Q.** What about the survivor count [2] of the same compound?
**A.** 2 of 6 on day 11

**Q.** Which results are given for `CC/C(=C(\c1ccccc1)c1ccc(OCCN(C)C)cc1)c1ccccc1`?
**A.** survivor count (dose: 100.0 mg/kg/injection, schedule: Q01DX010 (sc), vehicle: Klucel (hydroxypropylcellulose) (HPC)): 1 of 2 on day 11; survivor count (dose: 200.0 mg/kg/injection, schedule: Q01DX010 (sc), vehicle: Klucel (hydroxypropylcellulose) (HPC)): 1 of 2 on day 11; survivor count (dose: 400.0 mg/kg/injection, schedule: Q01DX010 (sc), vehicle: Klucel (hydroxypropylcellulose) (HPC)): 1 of 3 on day 11

**Q.** `C1OC1CN1CCN(CC2CO2)CC1` (centres undefined) was tested. Which survivor count (dose: 32.0 mg/kg/injection, schedule: Q01DX010 (sc), vehicle: saline) did it give?
**A.** 0 of 3 on day 11 and 0 of 6 on day 11

**Q.** What about the survivor count (dose: 32.0 mg/kg/injection, schedule: Q01DX010 (sc), vehicle: suspension in saline) of the same compound?
**A.** 0 of 3 on day 11

**Q.** What about the survivor count (dose: 64.0 mg/kg/injection, schedule: Q01DX010 (sc), vehicle: suspension in saline) of the same compound?
**A.** 0 of 3 on day 11

**Q.** Which survivor count (dose: 400.0 mg/kg/injection, schedule: Q01DX010 (sc), vehicle: water) does the source give for `CCCCNC(C)C1(O)Cc2c(O)c3c(c(O)c2C(OC2CC(N)C(O)C(C)O2)C1)C(=O)c1c(OC)cccc1C3=O` (centres undefined) here?
**A.** 0 of 3 on day 11

**Q.** Which results are given for `c1ccc2c(NCCCCCCNc3c4ccccc4nc4ccccc34)c3ccccc3nc2c1`?
**A.** survivor count (dose: 40.0 mg/kg/injection, schedule: Q01DX010 (sc), vehicle: Klucel (hydroxypropylcellulose) (HPC)): 1 of 3 on day 11; survivor count (dose: 80.0 mg/kg/injection, schedule: Q01DX010 (sc), vehicle: Klucel (hydroxypropylcellulose) (HPC)): 0 of 3 on day 11

**Q.** `Cc1ccc(S(=O)(=O)NC(=S)S)cc1` was tested. Which T/C (dose: 100.0 mg/kg/injection, schedule: Q01DX010 (sc), vehicle: saline with Tween-80) did it give?
**A.** 135 % of control

**Q.** What about the survivor count (dose: 800.0 mg/kg/injection, schedule: Q01DX010 (sc), vehicle: saline with Tween-80) of the same compound?
**A.** 0 of 3 on day 11

**Q.** Which survivor count (dose: 8.0 mg/kg/injection, schedule: Q04DX003 (sc), vehicle: water) does the source give for `CCC1CC2CN(CCc3c([nH]c4ccccc34)C(C(=O)OC)(c3cc4c(cc3OC)N(C)C3C(O)(C(=O)OC)C(OC(C)=O)C5(CC)C=CCN6CCC43C65)C2)C1` (centres undefined) here?
**A.** 0 of 6 on day 11

**Q.** And the survivor count (dose: 16.0 mg/kg/injection, schedule: Q04DX003 (sc), vehicle: water)?
**A.** 0 of 6 on day 11 and 2 of 6 on day 15

**Q.** And the survivor count (dose: 32.0 mg/kg/injection, schedule: Q04DX003 (sc), vehicle: saline)?
**A.** 1 of 6 on day 11

**Q.** And the survivor count (dose: 32.0 mg/kg/injection, schedule: Q04DX003 (sc), vehicle: water)?
**A.** 0 of 6 on day 11 and 3 of 6 on day 15

From PubChem BioAssay AID296 (DTP/NCI, 2004)
